{
  "source": "patent US9487500B2",
  "about": "“Compounds and compositions thereof” (Inhibikase Therapeutics, Inc., priority 2012, dated 2016)",
  "test_system": "VEE virus",
  "experiment": "microbe, parasite or virus in culture",
  "settings": "Alphavirus, read-out: EC50 (micromolar)",
  "data": [
    {"smiles": "Cc1ccc(NC(=O)c2ccc(CN3CCN(C)CC3)cc2)cc1Nc1nccc(-c2cccnc2)n1", "note": "[imatinib, 4-[(4-methylpiperazin-1-yl)methyl]-N-(4-methyl-3-{[4-(pyridin-3-yl)pyrimidin-2-yl]amino}phenyl)benzamide, reference compound]", "values": [
      {"measurement": "EC50", "value": 6, "unit": "µM"}
    ]}
  ]
}
